According to PMC5836133, “The intracellular immune receptor Rx1 regulates the DNA-binding activity of a Golden2-like transcription factor”:
pKd: −log10 of the molar value. For part of these data: Weaker means in comparison with the reference protein, sequence or condition of that experiment. Tags and fusion partners may be left off the protein sequences shown. For part of these data: Construct, isoform or probe ends are uncertain for at least one entry.

Key:
[1] = tested on: T1, NbGlk1(83-243) (Nicotiana benthamiana); assay: fluorescence anisotropy; conditions: Fluorescence anisotropy: 20 mM Tris-HCl pH 7.4, 140 mM NaCl, 1 mM DTT, 10 nM labelled DNA, temperature not stated. PBM conditions as in cited protocols., recombinant protein, protein details: His6 (pET14b), letters put together from the description
T1 sequence (looked up, limits assumed): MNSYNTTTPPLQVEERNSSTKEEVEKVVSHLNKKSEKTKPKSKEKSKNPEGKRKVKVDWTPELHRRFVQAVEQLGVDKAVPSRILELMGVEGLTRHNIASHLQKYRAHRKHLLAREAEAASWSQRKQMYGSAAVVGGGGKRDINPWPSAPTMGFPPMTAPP

[2] = tested on: T2, NbGlk1(83-402) (Nicotiana benthamiana); assay: fluorescence anisotropy; conditions: Fluorescence anisotropy: 20 mM Tris-HCl pH 7.4, 140 mM NaCl, 1 mM DTT, 10 nM labelled DNA, temperature not stated. PBM conditions as in cited protocols., recombinant protein, protein details: His6 (pET14b), letters put together from the description
T2 sequence (looked up, limits assumed): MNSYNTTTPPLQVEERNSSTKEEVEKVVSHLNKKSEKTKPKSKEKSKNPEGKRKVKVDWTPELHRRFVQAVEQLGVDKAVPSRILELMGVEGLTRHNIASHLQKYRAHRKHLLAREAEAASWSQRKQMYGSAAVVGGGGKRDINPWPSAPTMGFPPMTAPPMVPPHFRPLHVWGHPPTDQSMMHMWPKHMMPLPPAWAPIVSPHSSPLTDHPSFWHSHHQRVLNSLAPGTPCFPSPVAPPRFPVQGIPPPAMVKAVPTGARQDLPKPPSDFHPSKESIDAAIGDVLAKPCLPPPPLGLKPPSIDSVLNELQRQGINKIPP

[3] = tested on: T3, NbGlk1(1-243) (Nicotiana benthamiana); assay: fluorescence anisotropy; conditions: Fluorescence anisotropy: 20 mM Tris-HCl pH 7.4, 140 mM NaCl, 1 mM DTT, 10 nM labelled DNA, temperature not stated. PBM conditions as in cited protocols., recombinant protein, protein details: His6 (pET14b), label: 6-carboxyfluorescein end label on FA-5, letters put together from the description
T3 sequence (looked up, limits assumed): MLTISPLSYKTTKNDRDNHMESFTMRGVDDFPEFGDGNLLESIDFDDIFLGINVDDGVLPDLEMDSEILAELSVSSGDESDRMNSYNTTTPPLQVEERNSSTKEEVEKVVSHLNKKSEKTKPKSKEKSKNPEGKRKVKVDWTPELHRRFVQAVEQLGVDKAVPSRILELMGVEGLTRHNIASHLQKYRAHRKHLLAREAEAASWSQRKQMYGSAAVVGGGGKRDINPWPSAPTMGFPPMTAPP

[4] = tested on: T3, NbGlk1(1-243) (Nicotiana benthamiana); assay: FP; conditions: Fluorescence anisotropy: 20 mM Tris-HCl pH 7.4, 140 mM NaCl, 1 mM DTT, 10 nM labelled DNA; temperature not stated. PBM conditions as in cited protocols.; recombinant protein; protein details: His6 (pET14b); label: 6-carboxyfluorescein end label on FA-5; letters put together from the description
[5] = with His6-Rx1(1-144), label: 6-carboxyfluorescein end label on FA-1
[6] = with His6-Rx1(1-489), label: 6-carboxyfluorescein end label on FA-1
[7] = with His6-Rx1(1-144), label: 6-carboxyfluorescein end label on FA-3
[8] = with His6-Rx1(1-489), label: 6-carboxyfluorescein end label on FA-3
[9] = with His6-Rx1(1-144), label: 6-carboxyfluorescein end label on FA-5
[10] = with His6-Rx1(1-489), label: 6-carboxyfluorescein end label on FA-5

In the case of “CACTGTGACACACTGTGACACACTGTGACACACTGTGACACACTGTGACC (double strand) [No site (FA-1/FA-2)]”, the pKd [1, 5] was 6.07, the pKd [1, 6] was 5.87 and the pKd ([2]; with GST-Rx1(1-144), label: 6-carboxyfluorescein end label on FA-1) was 5.70. It also gave a pKd [2, 5] of 6.40 and a pKd [2, 6] of 6.38.
“CAGATTTCCACAGATTTCCACAGATTTCCACAGATTTCCACAGATTTCCC (double strand) [AGATTT (concatenated AGATTTCC; FA-3/FA-4)]” was tested, and the pKd [1, 7] was 6.12, the pKd [1, 8] was 6.19 and the pKd ([2]; with GST-Rx1(1-144), label: 6-carboxyfluorescein end label on FA-3) was 6.14. The pKd [2, 7] was 6.34 and the pKd [2, 8] was 6.47.
“CGGATATCCACGGATATCCACGGATATCCACGGATATCCACGGATATCCC (double strand) [GATATC (concatenated GGATATCC; FA-5/FA-6)]” was tested, and the binding result ([3]; with His6-Rx1(1-144)) was “binds more weakly”, the binding result ([3]; with His6-Rx1(1-489)) was “binds more weakly” and the pKd [1, 9] was 6.40. For the same sequence, the pKd [1, 10] was 6.30, the pKd ([2]; with GST-Rx1(1-144), label: 6-carboxyfluorescein end label on FA-5) was 6.47 and the pKd [2, 9] was 6.52. For the same sequence, the pKd [2, 10] was 6.72 and the binding result [4] was “binds more weakly”.
